Measured values: paper PMC13226233

Protein sequences, listed by entry. Tags and fused reporters are not part of them.
UniProt P54198: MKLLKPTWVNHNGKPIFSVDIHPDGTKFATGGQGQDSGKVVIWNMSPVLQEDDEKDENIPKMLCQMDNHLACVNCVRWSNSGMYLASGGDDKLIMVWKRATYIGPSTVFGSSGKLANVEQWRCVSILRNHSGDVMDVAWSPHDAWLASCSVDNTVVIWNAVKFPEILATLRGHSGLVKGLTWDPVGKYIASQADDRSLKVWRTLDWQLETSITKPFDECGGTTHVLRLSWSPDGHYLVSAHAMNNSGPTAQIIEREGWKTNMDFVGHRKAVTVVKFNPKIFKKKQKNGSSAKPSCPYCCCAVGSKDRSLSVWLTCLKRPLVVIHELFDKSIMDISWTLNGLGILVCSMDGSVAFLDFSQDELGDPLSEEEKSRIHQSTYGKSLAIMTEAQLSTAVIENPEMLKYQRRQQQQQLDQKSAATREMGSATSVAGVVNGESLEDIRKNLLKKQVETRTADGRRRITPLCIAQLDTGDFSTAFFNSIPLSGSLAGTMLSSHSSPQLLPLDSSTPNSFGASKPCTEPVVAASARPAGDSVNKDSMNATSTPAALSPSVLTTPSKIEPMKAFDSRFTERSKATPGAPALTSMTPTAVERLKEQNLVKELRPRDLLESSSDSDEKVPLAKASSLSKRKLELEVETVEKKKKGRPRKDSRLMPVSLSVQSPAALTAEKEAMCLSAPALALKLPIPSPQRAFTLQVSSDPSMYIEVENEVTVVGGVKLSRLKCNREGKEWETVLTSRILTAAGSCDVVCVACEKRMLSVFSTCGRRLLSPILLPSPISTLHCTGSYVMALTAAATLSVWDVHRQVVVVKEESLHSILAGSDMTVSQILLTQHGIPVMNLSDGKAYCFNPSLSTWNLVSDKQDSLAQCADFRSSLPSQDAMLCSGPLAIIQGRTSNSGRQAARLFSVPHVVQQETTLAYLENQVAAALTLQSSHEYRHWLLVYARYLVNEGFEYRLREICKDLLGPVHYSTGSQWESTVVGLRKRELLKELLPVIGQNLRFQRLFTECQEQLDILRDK
UniProt O60264: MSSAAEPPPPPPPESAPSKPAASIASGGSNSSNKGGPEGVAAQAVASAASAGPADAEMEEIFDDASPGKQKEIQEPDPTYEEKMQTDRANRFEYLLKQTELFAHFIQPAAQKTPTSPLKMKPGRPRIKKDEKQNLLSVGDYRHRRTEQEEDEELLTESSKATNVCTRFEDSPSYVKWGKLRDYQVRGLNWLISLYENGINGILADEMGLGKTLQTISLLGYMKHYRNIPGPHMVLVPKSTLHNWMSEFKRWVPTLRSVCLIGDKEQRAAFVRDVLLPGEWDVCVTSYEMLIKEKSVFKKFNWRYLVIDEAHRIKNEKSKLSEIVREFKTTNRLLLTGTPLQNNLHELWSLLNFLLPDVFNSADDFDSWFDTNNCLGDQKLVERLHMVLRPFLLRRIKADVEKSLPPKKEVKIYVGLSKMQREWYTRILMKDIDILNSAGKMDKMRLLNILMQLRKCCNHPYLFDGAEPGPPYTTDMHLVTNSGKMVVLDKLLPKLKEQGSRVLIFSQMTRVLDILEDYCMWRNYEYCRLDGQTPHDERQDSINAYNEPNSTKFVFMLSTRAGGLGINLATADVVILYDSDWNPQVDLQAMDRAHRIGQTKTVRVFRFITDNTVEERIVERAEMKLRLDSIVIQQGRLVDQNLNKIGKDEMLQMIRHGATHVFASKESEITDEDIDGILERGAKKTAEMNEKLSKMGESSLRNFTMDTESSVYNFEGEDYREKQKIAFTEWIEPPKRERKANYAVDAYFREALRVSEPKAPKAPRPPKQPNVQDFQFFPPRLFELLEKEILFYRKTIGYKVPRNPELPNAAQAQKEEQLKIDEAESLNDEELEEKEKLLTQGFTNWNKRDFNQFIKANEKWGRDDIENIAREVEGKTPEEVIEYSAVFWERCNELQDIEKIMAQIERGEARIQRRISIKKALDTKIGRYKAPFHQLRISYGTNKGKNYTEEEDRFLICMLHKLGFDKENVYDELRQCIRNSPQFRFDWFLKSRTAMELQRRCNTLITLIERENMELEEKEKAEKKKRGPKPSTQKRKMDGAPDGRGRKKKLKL
UniProt Q6ZU65: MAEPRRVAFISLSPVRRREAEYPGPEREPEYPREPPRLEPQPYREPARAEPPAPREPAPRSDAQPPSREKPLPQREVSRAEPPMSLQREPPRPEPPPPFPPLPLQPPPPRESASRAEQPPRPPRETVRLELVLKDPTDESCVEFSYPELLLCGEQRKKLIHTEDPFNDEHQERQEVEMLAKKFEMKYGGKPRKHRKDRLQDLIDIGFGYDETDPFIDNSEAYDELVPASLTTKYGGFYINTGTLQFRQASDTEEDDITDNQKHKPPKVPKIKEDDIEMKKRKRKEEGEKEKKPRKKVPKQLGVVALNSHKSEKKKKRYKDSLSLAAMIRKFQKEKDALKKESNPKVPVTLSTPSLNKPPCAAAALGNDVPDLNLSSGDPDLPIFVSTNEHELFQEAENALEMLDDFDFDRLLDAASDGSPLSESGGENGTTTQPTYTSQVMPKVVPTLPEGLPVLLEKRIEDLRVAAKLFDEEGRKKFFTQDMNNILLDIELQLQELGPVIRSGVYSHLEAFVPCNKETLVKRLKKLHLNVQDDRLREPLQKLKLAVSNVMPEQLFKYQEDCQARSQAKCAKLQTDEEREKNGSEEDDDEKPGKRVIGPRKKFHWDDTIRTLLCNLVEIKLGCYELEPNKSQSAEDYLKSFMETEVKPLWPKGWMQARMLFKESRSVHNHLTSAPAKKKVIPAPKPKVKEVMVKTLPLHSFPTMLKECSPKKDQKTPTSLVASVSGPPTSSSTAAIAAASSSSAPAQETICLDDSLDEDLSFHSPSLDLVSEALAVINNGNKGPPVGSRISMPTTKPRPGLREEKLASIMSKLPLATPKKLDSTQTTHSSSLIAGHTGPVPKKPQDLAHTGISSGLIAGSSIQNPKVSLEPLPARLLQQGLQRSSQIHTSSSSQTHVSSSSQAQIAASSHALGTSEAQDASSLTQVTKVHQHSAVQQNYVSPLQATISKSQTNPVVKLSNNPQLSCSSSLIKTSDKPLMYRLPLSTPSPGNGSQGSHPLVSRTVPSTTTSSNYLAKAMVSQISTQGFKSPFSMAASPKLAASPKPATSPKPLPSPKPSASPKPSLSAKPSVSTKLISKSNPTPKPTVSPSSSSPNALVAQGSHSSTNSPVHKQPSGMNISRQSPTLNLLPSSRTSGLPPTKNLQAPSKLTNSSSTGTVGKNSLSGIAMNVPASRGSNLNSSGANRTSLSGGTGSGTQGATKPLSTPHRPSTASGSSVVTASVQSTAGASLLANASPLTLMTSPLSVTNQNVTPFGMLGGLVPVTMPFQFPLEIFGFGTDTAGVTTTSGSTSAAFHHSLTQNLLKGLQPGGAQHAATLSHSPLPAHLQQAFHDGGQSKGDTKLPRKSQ
UniProt Q15652: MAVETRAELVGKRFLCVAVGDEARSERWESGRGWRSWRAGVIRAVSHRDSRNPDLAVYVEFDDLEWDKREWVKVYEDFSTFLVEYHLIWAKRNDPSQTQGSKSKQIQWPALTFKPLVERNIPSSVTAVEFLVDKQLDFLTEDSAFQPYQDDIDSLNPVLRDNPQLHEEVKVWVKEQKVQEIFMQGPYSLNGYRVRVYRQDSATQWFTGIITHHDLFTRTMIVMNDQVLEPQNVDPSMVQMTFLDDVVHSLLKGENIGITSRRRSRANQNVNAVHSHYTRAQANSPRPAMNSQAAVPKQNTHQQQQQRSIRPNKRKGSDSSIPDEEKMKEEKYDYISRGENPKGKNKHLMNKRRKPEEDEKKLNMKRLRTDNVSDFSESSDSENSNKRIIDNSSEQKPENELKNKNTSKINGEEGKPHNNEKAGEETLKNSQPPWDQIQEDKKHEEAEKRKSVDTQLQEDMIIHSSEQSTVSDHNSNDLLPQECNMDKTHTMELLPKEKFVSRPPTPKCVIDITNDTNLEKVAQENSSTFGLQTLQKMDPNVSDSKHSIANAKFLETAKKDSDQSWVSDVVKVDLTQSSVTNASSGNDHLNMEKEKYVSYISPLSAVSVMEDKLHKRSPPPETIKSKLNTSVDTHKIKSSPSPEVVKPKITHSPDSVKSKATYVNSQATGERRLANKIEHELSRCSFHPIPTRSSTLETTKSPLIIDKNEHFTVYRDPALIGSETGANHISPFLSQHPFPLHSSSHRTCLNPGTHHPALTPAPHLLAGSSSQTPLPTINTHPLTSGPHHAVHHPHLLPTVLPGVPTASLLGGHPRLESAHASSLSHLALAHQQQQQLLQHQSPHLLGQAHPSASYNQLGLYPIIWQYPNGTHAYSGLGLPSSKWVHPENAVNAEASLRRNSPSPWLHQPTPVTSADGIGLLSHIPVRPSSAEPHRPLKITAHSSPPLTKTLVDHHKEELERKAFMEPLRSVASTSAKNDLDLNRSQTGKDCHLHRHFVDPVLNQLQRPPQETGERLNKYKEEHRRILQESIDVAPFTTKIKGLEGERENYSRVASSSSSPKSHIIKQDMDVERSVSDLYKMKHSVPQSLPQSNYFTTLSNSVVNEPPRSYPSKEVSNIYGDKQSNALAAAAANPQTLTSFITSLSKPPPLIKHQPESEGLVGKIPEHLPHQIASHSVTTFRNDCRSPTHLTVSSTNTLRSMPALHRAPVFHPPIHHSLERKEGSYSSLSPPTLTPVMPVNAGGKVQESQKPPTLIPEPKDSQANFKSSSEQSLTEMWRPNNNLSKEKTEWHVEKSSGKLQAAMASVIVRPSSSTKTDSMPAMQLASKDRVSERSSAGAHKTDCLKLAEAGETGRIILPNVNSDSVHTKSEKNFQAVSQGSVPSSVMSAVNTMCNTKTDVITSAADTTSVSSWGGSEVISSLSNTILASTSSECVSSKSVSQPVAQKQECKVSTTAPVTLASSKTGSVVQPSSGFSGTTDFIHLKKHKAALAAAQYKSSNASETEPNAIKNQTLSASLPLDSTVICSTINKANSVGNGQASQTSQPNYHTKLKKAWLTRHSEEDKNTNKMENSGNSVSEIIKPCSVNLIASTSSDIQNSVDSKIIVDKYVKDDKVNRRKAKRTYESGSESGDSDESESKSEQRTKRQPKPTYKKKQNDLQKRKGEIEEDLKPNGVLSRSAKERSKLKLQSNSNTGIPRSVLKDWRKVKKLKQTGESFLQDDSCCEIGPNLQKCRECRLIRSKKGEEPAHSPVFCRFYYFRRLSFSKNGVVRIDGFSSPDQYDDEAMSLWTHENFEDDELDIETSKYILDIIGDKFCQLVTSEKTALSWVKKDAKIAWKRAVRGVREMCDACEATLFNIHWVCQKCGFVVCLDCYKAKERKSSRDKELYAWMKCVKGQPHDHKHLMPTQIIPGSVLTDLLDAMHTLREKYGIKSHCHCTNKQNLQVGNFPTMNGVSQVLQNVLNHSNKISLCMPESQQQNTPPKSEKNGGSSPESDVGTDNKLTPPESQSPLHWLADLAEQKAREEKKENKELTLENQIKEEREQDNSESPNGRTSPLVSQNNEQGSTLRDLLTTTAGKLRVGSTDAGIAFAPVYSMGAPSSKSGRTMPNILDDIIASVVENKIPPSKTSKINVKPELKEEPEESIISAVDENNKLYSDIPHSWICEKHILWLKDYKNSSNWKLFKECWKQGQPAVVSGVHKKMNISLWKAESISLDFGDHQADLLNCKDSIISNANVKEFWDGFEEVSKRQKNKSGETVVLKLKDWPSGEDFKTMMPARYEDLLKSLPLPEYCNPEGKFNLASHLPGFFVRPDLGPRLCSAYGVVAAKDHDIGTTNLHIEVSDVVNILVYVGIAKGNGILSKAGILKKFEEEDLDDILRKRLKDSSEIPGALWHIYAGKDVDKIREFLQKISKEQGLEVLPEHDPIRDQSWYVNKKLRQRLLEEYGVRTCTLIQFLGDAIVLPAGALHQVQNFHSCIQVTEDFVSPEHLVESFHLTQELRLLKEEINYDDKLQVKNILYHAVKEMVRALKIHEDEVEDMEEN

target: Histone cell cycle regulator A (HIRA) (human (endogenous in K562)) (UniProt P54198); test: affinity purification with mass spectrometry; endogenous HIRA immunoprecipitated from K562 whole cell lysate (NETN buffer, protein G agarose), trypsin digest, LC-MS/MS (Orbitrap Eclipse); proteins also found in the IgG control were removed

binding, binds:
chromatin remodeler SMARCA5 (from UniProt O60264 1-1052)
UBN2 (from UniProt Q6ZU65 1-1347)
H3K9me3 demethylase JMJD1C (from UniProt Q15652 1-2540)

No constants are given. Whether binding was seen depends on the method and setting. In cells and extracts the contact can be indirect. These calls come from enrichment with a bait or labelling near it, and not all partners need be listed.
